Experimental data published in patent US20080193932A1.
These are yes or no findings as the source states them, for the method shown. In cells and extracts the contact can be indirect. Some entries that bind do so weakly or less than the wild type. Where a sequence is shown, tags or fusion partners need not be part of it.

Chains of the proteins cited; added tags and fusions are not shown. Lines headed by an entry give the natural chain unless they say otherwise; changes in a name come on top.
UniProt P30947: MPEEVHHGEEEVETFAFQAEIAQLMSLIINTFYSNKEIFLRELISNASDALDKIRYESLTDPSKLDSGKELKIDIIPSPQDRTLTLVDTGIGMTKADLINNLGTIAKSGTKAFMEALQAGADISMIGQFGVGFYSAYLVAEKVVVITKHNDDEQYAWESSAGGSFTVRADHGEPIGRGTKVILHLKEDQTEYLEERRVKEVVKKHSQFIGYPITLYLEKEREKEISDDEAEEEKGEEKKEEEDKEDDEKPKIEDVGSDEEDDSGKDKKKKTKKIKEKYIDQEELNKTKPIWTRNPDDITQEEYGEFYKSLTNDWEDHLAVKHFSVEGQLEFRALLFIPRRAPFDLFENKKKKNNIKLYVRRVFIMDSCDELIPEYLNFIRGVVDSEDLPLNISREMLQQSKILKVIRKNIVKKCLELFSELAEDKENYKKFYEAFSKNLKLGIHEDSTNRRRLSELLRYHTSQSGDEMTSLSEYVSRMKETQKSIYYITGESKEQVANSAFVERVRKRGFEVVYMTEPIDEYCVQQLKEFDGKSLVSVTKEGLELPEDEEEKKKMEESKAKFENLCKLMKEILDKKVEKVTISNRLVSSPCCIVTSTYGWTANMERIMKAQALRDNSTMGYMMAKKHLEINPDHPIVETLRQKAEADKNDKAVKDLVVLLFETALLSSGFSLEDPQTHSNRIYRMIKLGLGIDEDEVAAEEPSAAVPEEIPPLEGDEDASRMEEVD

Target: hsp90 inherent to rabbit reticulocyte lysate (RRL) (rabbit) (UniProt P30947)
Experiment: co-elution from EGCG-conjugated Sepharose (pull-down) of His-XAP2 in RRL, SDS-PAGE, phosphoimaging and immunoblot

binding: binds
B1: mouse histidine-tagged XAP2 (construct pET-AIP), 35S-labeled, translated in vitro in rabbit reticulocyte lysate and purified by cobalt (TALON) affinity … (protein, UniProt O08915 1-330, looked up, not shown: small tags and cut ends)
chain: MADLIARLREDGIQKRVIQEGRGELPDFQDGTKATFHFRTLHSDNEGSVIDDSRTRGKPMELIVGKKFKLPVWETIVCTMREGEIAQFLCDIKHVVLYPLVAKSLRNIAEGKDPLEGQRHCCGIAQMHEHSSLGHADLDALQQNPQPLIFHIEMLKVESPGTYQQDPWAMTDEEKAKAVPVIHQEGNRLYREGQVKEAAAKYYDAIACLKNLQMKEQPGSPDWIQLDLQITPLLLNYCQCKLVAQEYYEVLDHCSSILNKYDDNVKAYFKRGKAHAAVWNAQEAQADFAKVLELDPALAPVVSRELRALETRIRQKDEEDKARFRGIFSH
modifications: 35S-methionine label
